From patent EP4810514A1 come the findings set out here.

Sequences of proteins named here, by UniProt entry; tags and fusion partners are left off.
UniProt P40763: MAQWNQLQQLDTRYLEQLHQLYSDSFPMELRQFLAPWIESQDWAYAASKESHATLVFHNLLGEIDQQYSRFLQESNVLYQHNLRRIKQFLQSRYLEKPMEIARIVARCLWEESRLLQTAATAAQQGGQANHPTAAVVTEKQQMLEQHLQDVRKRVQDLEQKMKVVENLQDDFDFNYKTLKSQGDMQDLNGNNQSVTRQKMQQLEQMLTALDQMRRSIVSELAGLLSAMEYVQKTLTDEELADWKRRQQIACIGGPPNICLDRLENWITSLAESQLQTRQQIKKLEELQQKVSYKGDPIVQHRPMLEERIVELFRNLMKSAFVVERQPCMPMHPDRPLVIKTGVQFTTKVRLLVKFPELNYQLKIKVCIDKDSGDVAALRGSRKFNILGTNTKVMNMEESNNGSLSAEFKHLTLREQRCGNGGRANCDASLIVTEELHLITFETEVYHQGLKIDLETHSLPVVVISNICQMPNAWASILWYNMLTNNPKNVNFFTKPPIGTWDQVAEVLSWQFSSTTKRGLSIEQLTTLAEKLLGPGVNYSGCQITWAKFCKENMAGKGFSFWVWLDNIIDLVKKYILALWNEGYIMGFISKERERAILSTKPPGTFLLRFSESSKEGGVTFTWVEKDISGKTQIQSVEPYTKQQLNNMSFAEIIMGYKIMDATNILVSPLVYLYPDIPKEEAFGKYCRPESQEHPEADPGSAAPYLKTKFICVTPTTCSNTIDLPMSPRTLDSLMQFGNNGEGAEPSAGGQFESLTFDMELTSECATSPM

The target of this test is STAT3 (UniProt P40763). In words: yeast display library selection.

These are yes or no findings as the source states them, for the method shown. Some results given as binding are weak or reduced against the parent protein; the word gives no strength.

B1: ETI01_A4 nanobody (VHH)
VHH: HVQLVESGGGSVQAGGSLRLSCAASGFNSGDSCIGWFRQVPGKEREGVSVISSGGEIRYYADSVKGRFTISQDNTKNTLYLQMNSLKPEDTAMYYCATSVFLCYPRTWFNRYMYNSWGQGTQVTVSS
Turning to B1, the binding result is “binds”.
